# From patent publication US10577368B2 (The United States of America, as represented by the …, priority 2013, dated 2020)
# By UniProt entry, the sequences of proteins in these tests, tags left out.
# UniProt Q01959, whole entry: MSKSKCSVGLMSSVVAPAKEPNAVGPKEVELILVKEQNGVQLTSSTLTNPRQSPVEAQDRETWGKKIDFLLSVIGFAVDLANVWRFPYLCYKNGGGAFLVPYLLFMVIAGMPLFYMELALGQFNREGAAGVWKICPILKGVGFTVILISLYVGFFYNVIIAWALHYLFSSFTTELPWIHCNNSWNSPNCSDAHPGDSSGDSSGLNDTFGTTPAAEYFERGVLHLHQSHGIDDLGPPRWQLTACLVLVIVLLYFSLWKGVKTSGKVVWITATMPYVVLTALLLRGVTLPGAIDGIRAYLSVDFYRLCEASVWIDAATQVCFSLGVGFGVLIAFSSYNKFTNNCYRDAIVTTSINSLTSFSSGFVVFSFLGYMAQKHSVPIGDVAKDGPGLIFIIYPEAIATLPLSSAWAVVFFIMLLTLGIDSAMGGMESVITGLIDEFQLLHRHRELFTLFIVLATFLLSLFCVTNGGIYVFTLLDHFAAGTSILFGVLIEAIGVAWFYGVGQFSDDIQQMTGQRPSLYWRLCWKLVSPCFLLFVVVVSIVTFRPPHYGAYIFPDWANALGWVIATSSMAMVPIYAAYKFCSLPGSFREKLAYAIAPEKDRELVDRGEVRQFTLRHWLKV
# At least one compound was matched to its structure with a doubt left.
# Target: human DAT (Homo sapiens (Human), UniProt Q01959)
# Assay: Radioligand ([3H]WIN35428) binding at the dopamine transporter
smiles,measurement,value
CNC(=O)[C@@]12C[C@@H]1[C@@H](n1cnc3c(NC)cc(C#Cc4ccc(Cl)s4)nc31)C(O)[C@H]2O (stereo partly shown) [Compound 127],% inhibition of radioligand ([3H]WIN35428) binding at the human DAT,1%
